PubChem BioAssay AID1259282 – Sanger Institute, 2017

Assay: 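Kinases whose loss reduces viability on their own or with anchor drugs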 (primary screen)
Cell system: DIFI human colorectal cancer cell line
Reagent: siRNA pool against human genes
Conditions: anchor drug at a mild dose (BYL719 1 µM, cetuximab 5 µg/ml, trametinib 10 nM) or DMSO vehicle; exposure time not given
Measured: 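Robust z-score and replicate-mean viability versus non-targeting pool without drug, plus a synergy score for each low-dose anchor drug (BYL719, cetuximab, trametinib)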
Direction: robust z-score, knock-down alone: higher = more viable cells than typical knock-down
Hit rule: 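Essential when the robust z-score of the knock-down without drug falls below -3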
Calls: active = essential (knock-down alone, z below -3); inactive = not essential
The deposit covers 794 reagents; shown is a random part of them. In the full data, 11 (1.4%) got an active call. 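Calls flag knock-downs that lower viability without drug; drug synergy appears only in the synergy scores; exposure time not stated.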 A number with no mark means an inactive call. Not all columns of the deposit are shown. Reagent sequences are not shown. Not given: the amount of reagent, the time to read-out.

Silencing of NTN4 (GeneID 59277) gave: robust z-score, knock-down alone -0.7. After knock-down of MAPK11 (GeneID 5600), the screen gave robust z-score, knock-down alone 0.715. For PDK1 (GeneID 5163) the deposit lists robust z-score, knock-down alone 0.55. MAST1 (GeneID 22983) showed robust z-score, knock-down alone 0.715. ITPKC (GeneID 80271) gave robust z-score, knock-down alone 0.0441. Against GRK3 (GeneID 157), the values are robust z-score, knock-down alone 0.706.

Depletion of CAMKV (GeneID 79012) came out at: robust z-score, knock-down alone -0.164. Depletion of MAPK7 (GeneID 5598) gave: robust z-score, knock-down alone 0.715. Against DGUOK (GeneID 1716) the deposit lists robust z-score, knock-down alone -2.68. Silencing of RIPK2 (GeneID 8767) resulted in: robust z-score, knock-down alone 0.715. Silencing of TCF12 (GeneID 6938) gave: robust z-score, knock-down alone 0.224. With knock-down of GUCY2C (GeneID 2984) the results were robust z-score, knock-down alone 0.715.

Against PSTK (GeneID 118672) the deposit lists robust z-score, knock-down alone 0.715. Knock-down of WEE1 (GeneID 7465) resulted in: robust z-score, knock-down alone -2.52. HIPK4 (GeneID 147746) scored robust z-score, knock-down alone 0.715. TESK2 (GeneID 10420) scored robust z-score, knock-down alone 0.715. Silencing of PTEN (GeneID 5728) resulted in: robust z-score, knock-down alone 0.462. Silencing of MAGI2 (GeneID 9863) gave: robust z-score, knock-down alone 0.715.

With knock-down of STK3 (GeneID 6788), the record shows robust z-score, knock-down alone 0.715. With knock-down of DDR1 (GeneID 780), the record shows robust z-score, knock-down alone 0.443. Depletion of PRKG1 (GeneID 5592) resulted in: robust z-score, knock-down alone -0.713. Depletion of MARK3 (GeneID 4140) came out at: robust z-score, knock-down alone -1.27. Depletion of BRD2 (GeneID 6046) came out at: robust z-score, knock-down alone 0.715. After knock-down of ADK (GeneID 132), the record shows robust z-score, knock-down alone 0.715.

Silencing of NUAK1 (GeneID 9891) resulted in: robust z-score, knock-down alone -0.384. Against CNOT1 (GeneID 23019), the entry reads robust z-score, knock-down alone -2.22. PKM (GeneID 5315) gave robust z-score, knock-down alone 0.456. Against MPP2 (GeneID 4355) the deposit lists robust z-score, knock-down alone -0.977.
